Experimental data published in patent US7582631B2, “Substituted heterocyclic compounds and methods of use” (Amgen Inc., priority 2004, dated 2009).
Some entries share one result that the patent states for a list of compounds.

Sequences of proteins named here, by UniProt entry; tags and fusion partners are left off. Residues count along the entry.
UniProt Q04759, 380-634 limits assumed: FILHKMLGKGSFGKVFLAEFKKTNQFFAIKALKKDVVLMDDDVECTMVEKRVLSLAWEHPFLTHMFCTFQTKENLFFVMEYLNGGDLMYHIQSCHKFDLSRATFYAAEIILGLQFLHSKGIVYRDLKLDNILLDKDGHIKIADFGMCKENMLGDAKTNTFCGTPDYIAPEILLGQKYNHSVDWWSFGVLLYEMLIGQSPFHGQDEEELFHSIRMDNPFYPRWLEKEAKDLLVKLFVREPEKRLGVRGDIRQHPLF

Biological target: PKCθ (Homo sapiens, UniProt Q04759)
Assay: PKCθ Homogeneous Time Resolved Fluorescent (HTRF) Kinase Assay
Conditions: read-out: activity in the PKCθ HTRF assay; ATP 25 μM, PKCθ 100 pM, 60 min

IC50, < 50 µM:
COC(CNc1cc(-c2ccnc(N[C@@H](C)c3ccccc3)c2)nc(N2C[C@@H]3C[C@H]2CN3C(C)C)n1)OC [Example 14, (S)-(2,2-Dimethoxy-ethyl)-{2-(5-isopropyl-(1S,4S)-2,5-diaza-bicyclo[2.2.1]hept-2-yl)-6-[2-(1-phenyl-ethylamino)-pyridin-4-yl]-pyrimidin-4-yl}-amine]
CC(C)N1C[C@@H]2C[C@H]1CN2c1nccc(-c2ccnc(N[C@@H](C)c3ccccc3)c2)n1 [Example 66, (S)-{4-[2-(5-Isopropyl-(1S,4S)-2,5-diaza-bicyclo[2.2.1]hept-2-yl)-pyrimidin-4-yl]-pyridin-2-yl}-(1-phenyl-ethyl)-amine]
CN(Cc1ccccc1)c1cc(-c2cc3nccn3c(N3C[C@@H]4C[C@H]3CN4)n2)ccn1 [Example 59, Benzyl {4-[5-((1S,4S)-2,5-diazabicyclo[2.2.1]hept-2-yl)imidazo[1,2-c]pyrimidin-7-yl]pyridin-2-yl}methylamine]
CCCN1CC2CC1CN2c1nc(-c2ccnc(N[C@@H](C)c3ccccc3)c2)cc2nccn12 (stereo partly drawn) [Example 110, N-((1S)-1-phenylethyl)-4-(5-(5-propyl-2,5-diazabicyclo[2.2.1]hept-2-yl)imidazo[1,2-c]pyrimidin-7-yl)-2-pyridinamine]
CC(C)N1C[C@@H]2C[C@H]1CN2c1nc(-c2ccnc(NCc3cccc4ccccc34)c2)cc2nccn12 [Example 11, {4-[5-(5-Isopropyl-(1S,4S)-2,5-diaza-bicyclo[2.2.1]hept-2-yl)-imidazo[1,2-c]pyrimidin-7-yl]-pyridin-2-yl}—Naphthalen-1-ylmethyl-amine]
C[C@H](Nc1cc(-c2cc3nncn3c(N3CC4CC3CN4)n2)ccn1)c1ccccc1 (stereo partly drawn) [Example 77, 4-(5-(2,5-diazabicyclo[2.2.1]hept-2-yl)[1,2,4]triazolo[4,3-c]pyrimidin-7-yl)-N-((1S)-1-phenylethyl)-2-pyridinamine]
C[C@H](Nc1cc(-c2cc3nccn3c(N3CC4CC3CN4S(C)(=O)=O)n2)ccn1)c1ccccc1 (stereo partly drawn) [Example 79, 4-(5-(5-(methylsulfonyl)-2,5-diazabicyclo[2.2.1]hept-2-yl)imidazo[1,2-c]pyrimidin-7-yl)-N-((1S)-1-phenylethyl)-2-pyridinamine]
C[C@H](Nc1cc(-n2nc(N3CC4CC3CN4)c3ccccc32)ccn1)c1ccccc1F (stereo partly drawn) [Example 149, 4-(3-(2,5-diazabicyclo[2.2.1]hept-2-yl)-1H-indazol-1-yl)-N-((1S)-1-(2-fluorophenyl)ethyl)-2-pyridinamine]
C[C@@H](Nc1cc(-c2cc(=O)n(C)c(N3CC4CC3CN4C(=O)OC(C)(C)C)n2)ccn1)c1ccccc1 (stereo partly drawn) [Example 74, 1,1-dimethylethyl 5-(1-methyl-6-oxo-4-(2-(((1R)-1-phenylethyl)amino)-4-pyridinyl)-1,6-dihydro-2-pyrimidinyl)-2,5-diazabicyclo[2.2.1]heptane-2-carboxylate]
C[C@H](Nc1cc(-n2nc(N3CC4CC3CN4)c3c(Cl)cccc32)ccn1)c1ccccc1 (stereo partly drawn) [Example 158, 4-(4-chloro-3-(2,5-diazabicyclo[2.2.1]hept-2-yl)-1H-indazol-1-yl)-N-((1S)-1-phenylethyl)-2-pyridinamine]
CC(Nc1cc(-n2nc(N3CC4CC3CN4C(C)C)c3c(Cl)cccc32)ccn1)c1ccccc1 [Example 159, 4-(4-chloro-3-(5-(1-methylethyl)-2,5-diazabicyclo[2.2.1]hept-2-yl)-1H-indazol-1-yl)-N-((1S)-l-phenylethyl)-2-pyridinamine]
c1ccc2c(CNc3cc(-c4cc5nccn5c(N5C[C@@H]6C[C@H]5CN6)n4)ccn3)cccc2c1 [Example 10, {4-[5-((1S,4S)-2,5-Diaza-bicyclo[2.2.1]hept-2-yl)-imidazo[1,2-c]pyrimidin-7-yl]-pyridin-2-yl}-Naphthalen-1-ylmethyl-amine]
CC[C@H](C)N1CC2CC1CN2c1nc(-c2ccnc(N[C@@H](C)c3ccccc3)c2)cc2nccn12 (stereo partly drawn) [Example 102, 4-(5-(5-((1S)-1-methylpropyl)-2,5-diazabicyclo[2.2.1]hept-2-yl)imidazo[1,2-c]pyrimidin-7-yl)-N-((1S)-1-phenylethyl)-2-pyridinamine]
CCN1C[C@@H]2C[C@H]1CN2c1cc(-c2ccnc(N[C@@H](C)c3ccccc3)c2)nc2ccccc12 [Example 53, (S)-{4-[4-(5-Ethyl-(1S,4S)-2,5-diaza-bicyclo[2.2.1]hept-2-yl)-quinolin-2-yl]-pyridin-2-yl}-(1-phenyl-ethyl)-amine]
CC(C)N1CC2CC1CN2c1nn(-c2ccnc(NCc3ccccc3)c2)c2cc(F)ccc12 (centres unmarked) [Example 156, 4-(6-fluoro-3-(5-(1-methylethyl)-2,5-diazabicyclo[2.2.1]hept-2-yl)-1H-indazol-1-yl)-N-(phenylmethyl)-2-pyridinamine]
CC(C)N1C[C@@H]2C[C@H]1CN2c1cc(-c2ccnc(N[C@@H](C)c3ccccc3)c2)nc2ccccc12 [Example 52, (S)-{4-[4-(5-Isopropyl-(1S,4S)-2,5-diaza-bicyclo[2.2.1]hept-2-yl)-quinolin-2-yl]-pyridin-2-yl}-(1-phenyl-ethyl)-amine]
C[C@H](Nc1cc(-c2cc(N3C[C@@H]4C[C@H]3CN4C)c3ccccc3n2)ccn1)c1ccccc1 [Example 54, (S)-{4-[4-(5-Methyl-(1S,4S)-2,5-diaza-bicyclo[2.2.1]hept-2-yl)-quinolin-2-yl]-pyridin-2-yl}-(1-phenyl-ethyl)-amine]
CC(C)(C)OC(=O)N1CC2CC1CN2c1nc(-c2ccnc(NCc3ccccc3)c2)cc2nccn12 (centres unmarked) [Example 116, 1,1-dimethylethyl 5-(7-(2-((phenylmethyl)amino)-4-pyridinyl)imidazo[1,2-c]pyrimidin-5-yl)-2,5-diazabicyclo[2.2.1]heptane-2-carboxylate]
FC(F)(F)c1ccc2c(N3C[C@@H]4C[C@H]3CN4)nn(-c3ccnc(NCc4ccccc4)c3)c2c1 [Example 177, 4-(3-((1S,4S)-2,5-diazabicyclo[2.2.1]hept-2-yl)-6-(trifluoromethyl)-1H-indazol-1-yl)-N-(phenylmethyl)-2-pyridinamine]
CC(C)N1[C@H]2C[C@@H]([C@@H]1C)N(c1nc(-c3ccnc(N[C@@H](C)c4ccccc4)c3)cc3nccn13)C2 [Example 124, 4-(5-((1S,4S,6S)-6-methyl-5-(1-methylethyl)-2,5-diazabicyclo[2.2.1]hept-2-yl)imidazo[1,2-c]pyrimidin-7-yl)-N-((1S)-1-phenylethyl)-2-pyridinamine]
C[C@H](Nc1cc(-c2nc(N3C[C@@H]4C[C@H]3CN4)c3ccccc3n2)ccn1)c1ccccc1 [Example 49, {4-[4-((1S,4S)-2,5-Diaza-bicyclo[2.2.1]hept-2-yl)-quinazolin-2-yl]-pyridin-2-yl}-(S)-(1-phenyl-ethyl)-amine]
c1ccc(Nc2cc(-n3nc(N4CC5CC4CN5)c4ccccc43)ccn2)cc1 (centres unmarked) [Example 147, 4-(3-(2,5-diazabicyclo[2.2.1]hept-2-yl)-1H-indazol-1-yl)-N-phenyl-2-pyridinamine]
CC(C)N1CC2CC1CN2c1nc(-c2ccnc(N[C@@H](C)c3ccc(F)cc3)c2)cc2nccn12 (stereo partly drawn) [Example 92, N-((1S)-1-(4-fluorophenyl)ethyl)-4-(5-(5-(1-methylethyl)-2,5-diazabicyclo[2.2.1]hept-2-yl)imidazo[1,2-c]pyrimidin-7-yl)-2-pyridinamine]
CC(C)N1CC2CC1CN2c1nc(-c2ccnc(NCc3ccco3)c2)cc2nccn12 (centres unmarked) [Example 91, N-(2-furanylmethyl)-4-(5-(5-(1-methylethyl)-2,5-diazabicyclo[2.2.1]hept-2-yl)imidazo[1,2-c]pyrimidin-7-yl)-2-pyridinamine]
CN1CC2CC1CN2c1nn(-c2ccnc(NCc3ccccc3F)c2)c2ccccc12 (centres unmarked) [Example 143, N-((2-fluorophenyl)methyl)-4-(3-(5-methyl-2,5-diazabicyclo[2.2.1]hept-2-yl)-1H-indazol-1-yl)-2-pyridinamine]
C[C@H](Nc1cc(-n2nc(N3C[C@@H]4C[C@H]3CN4)c3ccccc32)ccn1)c1ccccc1 [Example 43, (S)-{4-[3-((1s, 4S)-2,5-Diaza-bicyclo[2.2.1]hept-2-yl)-indazol-1-yl]-pyridin-2-yl}-(1-phenyl-ethyl)-amine]
Fc1cccc(CNc2cc(-c3cc4nccn4c(N4CC5CC4CN5)n3)ccn2)c1 (centres unmarked) [Example 119, 4-(5-(2,5-diazabicyclo[2.2.1]hept-2-yl)imidazo[1,2-c]pyrimidin-7-yl)-N-((3-fluorophenyl)methyl)-2-pyridinamine]
CCN1CC2CC1CN2c1nn(-c2ccnc(N[C@@H](C)c3ccccc3)c2)c2cccc(Cl)c12 (stereo partly drawn) [Example 160, 4-(4-chloro-3-(5-ethyl-2,5-diazabicyclo[2.2.1]hept-2-yl)-1H-indazol-1-yl)-N-((1S)-1-phenylethyl)-2-pyridinamine]
C[C@H](Nc1cc(-c2cc3nccn3c(N3C[C@@H]4C[C@H]3CN4CCOc3ccccc3)n2)ccn1)c1ccccc1 [Example 108, N-((1S)-1-phenylethyl)-4-(5-((1S,4S)-5-(2-(phenyloxy)ethyl)-2,5-diazabicyclo[2.2.1]hept-2-yl)imidazo[1,2-c]pyrimidin-7-yl)-2-pyridinamine]
